The values below come from article doi:10.1101/2020.01.02.893115.

Amino acid sequences for entries named in this document (tags omitted).
UniProt Q9FPR3: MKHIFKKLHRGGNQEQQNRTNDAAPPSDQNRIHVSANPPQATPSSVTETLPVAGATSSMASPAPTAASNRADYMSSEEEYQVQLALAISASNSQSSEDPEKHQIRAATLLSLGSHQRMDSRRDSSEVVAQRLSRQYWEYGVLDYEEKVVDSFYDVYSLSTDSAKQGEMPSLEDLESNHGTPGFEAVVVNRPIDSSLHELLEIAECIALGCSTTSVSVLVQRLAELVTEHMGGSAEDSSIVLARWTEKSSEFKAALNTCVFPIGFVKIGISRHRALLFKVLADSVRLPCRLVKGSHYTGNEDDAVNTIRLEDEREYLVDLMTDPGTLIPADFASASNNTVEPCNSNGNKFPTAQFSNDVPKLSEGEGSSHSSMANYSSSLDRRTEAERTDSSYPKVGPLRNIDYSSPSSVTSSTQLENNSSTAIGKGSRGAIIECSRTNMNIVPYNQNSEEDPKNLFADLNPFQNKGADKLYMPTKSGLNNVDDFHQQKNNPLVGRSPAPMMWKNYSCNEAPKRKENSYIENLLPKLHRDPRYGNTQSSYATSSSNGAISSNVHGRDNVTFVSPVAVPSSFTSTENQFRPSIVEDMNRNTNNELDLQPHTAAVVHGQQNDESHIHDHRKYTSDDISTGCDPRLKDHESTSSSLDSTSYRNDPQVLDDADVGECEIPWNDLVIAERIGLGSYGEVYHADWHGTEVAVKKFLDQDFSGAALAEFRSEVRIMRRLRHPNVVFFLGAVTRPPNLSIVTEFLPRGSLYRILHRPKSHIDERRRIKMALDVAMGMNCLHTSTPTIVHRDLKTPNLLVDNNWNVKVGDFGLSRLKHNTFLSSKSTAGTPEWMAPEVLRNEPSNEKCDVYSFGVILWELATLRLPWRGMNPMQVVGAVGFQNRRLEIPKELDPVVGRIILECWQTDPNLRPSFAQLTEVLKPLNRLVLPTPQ

These are yes or no findings as the source states them, for the method shown. Binding seen in cells or lysates may run through a third protein. A result given as binding can be weak or reduced; the word gives no strength.

In the assay the target is EDR1-sYFP (Arabidopsis thaliana) (UniProt Q9FPR3). The assay can be described thus: co-IP.

Regarding “NAA50 transiently expressed in N. benthamiana (from UniProt F4JWH4) (enzyme)”, the binding result is recorded as “binds”.
